# Measurements published in patent US11472844B2 (priority 2017, dated 2022).
# HELM strings list residues between dots; [ac] is acetyl, [am] amide, other brackets name non-standard units.
# Assay: general procedure: Fmoc solid-phase peptide synthesis
# Settings: whole synthesis
substance,measurement,setting,value
PEPTIDE1{[ac].[dC].[dF].[dI].[dV].[dT].[dY].[dF].[dQ].[dD].[dN].[dT].[dD].[dD].[dN].[dD].[dF].[dK].[dE].G.[dA].[dP].[dF].[dN].[dD].[dK].[dF].[dL].[dE].[dY].G.[dD].G.[dE].[dF].[dK].[dK].[dI].G.[dE].[dA].[dT].[am]}$$$$V2.0,difficulty met,,"major side-product corresponding to the Asp-Gly deletion peptide, suggesting a poor Hmb dipeptide coupling yield"
same,isolated yield,overall isolated yield,9%
